Data set [1] deals with HepG2 cells. Briefly: HepG2 cytotoxicity, CellTiter-Glo, 48 h. To be noted: selectivity index CC50 HepG2/EC50. Background: Cellular ATP, detected with luciferase, serves as a proxy for viable cell number.
Data set [2] concerns HEK293 cells. Briefly: HEK293 cytotoxicity, CellTiter-Glo, 48 h. To be noted: selectivity index CC50 HEK293/EC50.

In turn, `C/C(=N\Nc1nc(C)c[se]1)c1ccc(C)cc1` [SeC1] came in with an SIHepG2 in data set [1] of 1. The SIHEK293 in data set [2] is listed as 1.
The compound `C/C(=N\Nc1nc(C)c[se]1)c1ccc(Br)cc1` [SeC3] had an SIHepG2 in data set [1] of 1. Besides, the SIHEK293 in data set [2] was 1.
In the case of `C/C(=N\Nc1nc(C)c[se]1)c1cccc([N+](=O)[O-])c1` [SeC5], the SIHepG2 in data set [1] stood at 1. Also, the SIHEK293 in data set [2] is listed as 1.
The compound `C/C(=N\NC(N)=[Se])c1ccc(C)cc1` [SeO1] came in with an SIHepG2 in data set [1] of 4. This compound also had an SIHEK293 in data set [2] of 4.
Take `C/C(=N\NC(N)=[Se])c1ccc(Br)cc1` [SeO3]: the results for the SIHepG2 in data set [1] and in data set [1] (listed as Se O3) were 6 and “approximately 6”, respectively. In addition, the SIHEK293 in data set [2] is on record as 6; in data set [2] (listed as Se O3) it was “approximately 6”.
Regarding `C/C(=N\NC(N)=[Se])c1cccc([N+](=O)[O-])c1` [SeO5], the SIHepG2 in data set [1] was 1. Besides, the SIHEK293 in data set [2] came out at 0.
The corresponding values for `C/C(=N\NC(N)=[Se])C12CC3CC(CC(C3)C1)C2` [SeO11] are 1 and 2.

The record behind these values is PMC12177781, “Chalcogen Derivatives for the Treatment of African Trypanosomiasis: Biological Evaluation of Thio- and Seleno-Semicarbazones and Their Azole Derivatives” (ACS Omega, 2025).
